Source: publication PMC3355077
Results are given in words; binding and its absence hold for the method and conditions named. In cells and extracts the contact can be indirect. A yes stands for co-enrichment or nearness to the bait. Other partners may have been found.

Chains of the proteins cited; added tags and fusions are not shown. Lines headed by an entry give the natural chain unless they say otherwise; changes in a name come on top. A line that says so, or that is headed by a name, gives the form on record, which may keep a tag or linker.
Psip1/p52 (endogenous) (mouse (endogenous in NIH 3T3 and MEFs)) (Q99JF8, form named): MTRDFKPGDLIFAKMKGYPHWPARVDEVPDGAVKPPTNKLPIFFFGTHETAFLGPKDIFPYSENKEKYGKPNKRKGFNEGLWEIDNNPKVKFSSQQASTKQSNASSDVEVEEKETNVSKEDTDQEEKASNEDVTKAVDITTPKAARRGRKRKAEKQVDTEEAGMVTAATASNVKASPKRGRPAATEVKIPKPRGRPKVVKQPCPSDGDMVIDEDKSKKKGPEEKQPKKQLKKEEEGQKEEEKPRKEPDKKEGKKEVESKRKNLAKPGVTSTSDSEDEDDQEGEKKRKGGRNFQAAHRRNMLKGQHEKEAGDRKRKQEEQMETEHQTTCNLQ

Each binder was assayed against Psip1/p52 (endogenous) (mouse (endogenous in NIH 3T3 and MEFs)) (UniProt Q99JF8) (assay: affinity purification with mass spectrometry; A300-847 IP from NIH 3T3 nuclear extract, washes with 200 mM KCl; gel bands analysed by MS/MS (Mascot)).

Binder | binding
Acinus (protein, UniProt Q9JIX8 1-1338) MWGRKRPNSSGETRGILSGNRGVDYGSGRGQSGPFEGRWRKLPKMPEAVGTDPSTSRKMAELEEVTLDGKPLQALRVTDLKAALEQRGLAKSGQKSALVKRLKGALMLENLQKHSTPHAAFQPNSQIGEEMSQNSFIKQYLEKQQELLRQRLEREAREAAELEEASAESEDEMTHPEGVASLLPPDFQSSLNRPELELSTHSPRKSSSFSEEKGESDDEKPRKGERRSSRVRQAKSKLPEYSQTAEEEEDQETPSRNLRVRADRNLKIEEEEEEEEEEEDDDDEEEEEVDEAQKSREAEAPTLKQFEDEEGEERTRAKPEKVVDEKPLNIRSQEKGELEKGGRVTRSQEEARRSHLARQQQEKETQIVSLPQEENEVKSSQSLEEKSQSPSPPPLPEDLEKAPVVLQPEQIVSEEETPPPLLTKEASSPPTHIQLQEEMEPVEGPAPPVLIQLSPPNTDAGAREPLASPHPAQLLRSLSPLSGTTDTKAESPAGRVSDESVLPLAQKSSLPECSTQKGVESEREKSAPLPLTVEEFAPAKGITEEPMKKQSLEQKEGRRASHALFPEHSGKQSADSSSSRSSSPSSSSSPSRSPSPDSVASRPQSSPGSKQRDGAQARVHANPHERPKMGSRSTSESRSRSRSRSRSASSSSRKSLSPGVSRDSNTSYTETKDPSCGQEAAAPSGPQLQVLEPKEKAPTFSASVRGRHLSHPEPEQQHVIQRLQPEQGSPKKCEAEEAEPPAATQPQTSETQISHLLESERTHHTVEEKEEVTMDTSENRPENEVPEPPLPVADQVSNDERPEGGAEEEEKKESSMPKSFKRKISVVSATKGVQAGNSDTEGGQPGRKRRWGASTAATQKKPSISITTESLKSLIPDIKPLAGQEAVVDLHADDSRISEDETERNGDDGTHDKGLKICRTVTQVVPAEGQENGQREEEEEKEPEAELPAPPQVSVEVALPPPVEHEVKKVTLGDTLTRRSISQQKSGVSITIDDPVRTAQVPSPPRGKISNIVHISNLVRPFTLGQLKELLGRTGTLVEEAFWIDKIKSHCFVTYSTVEEAVATRTALHGVKWPQSNPKFLCADYAEQDELDYHRGLLVDRPSETKAEEQGAPRPLHPPPPPPVQPPPHPRAEQREQERAVREQWAEREREMERRERTRSEREWDRDKVREGPRSRSRSRDRRRKERAKSKEKKSEKKEKAQEEPPAKLLDDLFRKTKAAPCIYWLPLTESQIVQKEAEQAERAKEREKRRKEREEEEQKEREKEAERERNRQLEREKRREHSRERERDRERERDRGDRERERERDRDRGRERDRRDTKRHSRSRSRSTPVRDRGGRR | binds
Srsf 3 (protein, UniProt P84104 1-164) MHRDSCPLDCKVYVGNLGNNGNKTELERAFGYYGPLRSVWVARNPPGFAFVEFEDPRDAADAVRELDGRTLCGCRVRVELSNGEKRSRNRGPPPSWGRRPRDDYRRRSPPPRRRSPRRRSFSRSRSRSLSRDRRRERSLSRERNHKPSRSFSRSRSRSRSNERK | binds
Srsf10 (alias Tra2b) (protein, UniProt P62996 1-288) MSDSGEQNYGERESRSASRSGSAHGSGKSARHTPARSRSKEDSRRSRSKSRSRSESRSRSRRSSRRHYTRSRSRSRSHRRSRSRSYSRDYRRRHSHSHSPMSTRRRHVGNRANPDPNCCLGVFGLSLYTTERDLREVFSKYGPIADVSIVYDQQSRRSRGFAFVYFENVDDAKEAKERANGMELDGRRIRVDFSITKRPHTPTPGIYMGRPTYGSSRRRDYYDRGYDRGYDDRDYYSRSYRGGGGGGGGWRAAQDRDQIYRRRSPSPYYSRGGYRSRSRSRSYSPRRY | binds
Rbm39 (protein, UniProt Q8VH51 1-530) MADDIDIEAMLEAPYKKDENKLNSANGHEERSKKRKKSKSRSRSHERKRSKSKERKRSRDRERKKSKSRERKRSRSKERRRSRSRSRDRRFRGRYRSPYSGPKFNSAIRGKIGLPHSIKLSRRRSRSKSPFRKDKSPVREPIDNLTPEERDARTVFCMQLAARIRPRDLEEFFSTVGKVRDVRMISDRNSRRSKGIAYVEFVDVSSVPLAIGLTGQRVLGVPIIVQASQAEKNRAAAMANNLQKGSAGPMRLYVGSLHFNITEDMLRGIFEPFGRIESIQLMMDSETGRSKGYGFITFSDSECAKKALEQLNGFELAGRPMKVGHVTERTDASSASSFLDSDELERTGIDLGTTGRLQLMARLAEGTGLQIPPAAQQALQMSGSLAFGAVAEFSFVIDLQTRLSQQTEASALAAAASVQPLATQCFQLSNMFNPQTEEEVGWDTEIKDDVIEECNKHGGVIHIYVDKNSAQGNVYVKCPSIAAAIAAVNALHGRWFAGKMITAAYVPLPTYHNLFPDSMTATQLLVPSRR | binds
Srsf4 (protein, UniProt Q8VE97 1-489) MPRVYIGRLSYQARERDVERFFKGYGKILEVDLKNGYGFVEFDDLRDADDAVYELNGKDLCGERVIVEHARGPRRDGSYGSGRSGYGYRRSGRDKYGPPTRTEYRLIVENLSSRCSWQDLKDYMRQAGEVTYADAHKGRKNEGVIEFVSYSDMKRALEKLDGTEVNGRKIRLVEDKPGSRRRRSYSRSRSHSRSRSRSRHSRKSRSRSGSSKSSHSKSRSRSRSGSHSRSKSRSRSQSRSRSKKEKSRSPSKDNKSRSRSRSPDKSRSKSKDHAEDKLQNNDSAGKAKSHSPSRHDSKSRSRSQERRAEEERRRSVSRARSQEKSRSQEKSLLKSRSRSRSRSRSRSKDKRKGRKRSRDESRSRSRSKSERSRKHSSKRDSKVSSSSSSSKKKKDTDHSRSPSRSVSKEREHAKAESGQRGSRAEGESEAPNPEPRARSRSTSKSKPNVPAESRSRSKSASKTRSRSKSPSRSASRSPSRSRSRSHSRS | binds
DDX 50 (protein, UniProt Q99MJ9 1-734) MPGKLLWGDIMELEAPLEESESQRKERQKSDRRKSRHHSESEERTETRENGVTDDLDAPKPKKAKMREKLNGDTKEGLRFSDEFSPSHKSRRKDLPNGDVDEYEKRSKRVSSSENSHKSSDKAEETLTREQKEGAFSNFSISEETIKLLKGRGVTYLFPIQVKTFGPVYEGKDLIAQARTGTGKTFSFAIPLIERLQRNQETIKKSRSPKVLVLAPTRELANQVAKDFKDITRKLSVACFYGGTSYQSQINQIRNGIDILVGTPGRIKDHLQSGRLDLSKLRHVVLDEVDQMLDLGFAEQVEDIIHESYKTDSEDNPQTLLFSATCPQWVYKVAKKYMKSRYEQVDLVGKMTQKAATTVEHLAIQCHWSQRPAVIGDVLQVYSGSEGRAIIFCETKKNVTEMAMNPHIKQNAQCLHGDIAQSQREITLKGFREGSFKVLVATNVAARGLDIPEVDLVIQSSPPQDVESYIHRSGRTGRAGRTGICVCFYQPRERGQLRYVEQKAGITFKRVGVPSTMDLVKSKSMDAIRSLASVSYAAVDFFRPSAQRLIEEKGAVDALAAALAHISGASSFEPRSLITSDKGFVTMTLESPEEIQDVSCAWKELNRKLSSNAVSHVTRMCLLKGNMGVCFDVPTSESERLQAEWHDSDWILSVPAKLPEIEEYYDGNTSSNPRQRSGWSGGRSGRSGRSGGRSGGRSGRQSRQGSRSGSRQDGRRRSGNRNRSRSGGHKRNFD | binds
U5 100K (protein, UniProt D3Z0M9 1-819) MAGELADKKDRDASPKEERKRSRTPERDRDRDRDRKSSPSKDRKRHRSRDRRRGGSRSRSRSRSKSVERERRHKERERDKERDRSKKERERDKDGHRRDKDRKRSSLSPGRGKDFKSRKDRDSKKGDEDEHGDKRPKIQPLSLEELLAKKKAEEEAEAKPKFLSKAEREAEALKRRQQEVEERQKMLEEERKKRKQFQDLGRKMLEDPQERERRERRERMERETNGNEDEEGRQKIREEKDKSKELHAIKERYLGGIKKRRRTRHLNDRKFVFEWDASEDTSIDYNPLYKERHQVQLLGRGFIAGIDLKQQKREQSRFYGDLMEKRRTLEEKEQEEARLRKLRKKEAKQRWDDRHWSQKKLDEMTDRDWRIFREDYSITTKGGKIPNPIRSWKDSSLPPHILEVIDKCGYKEPTPIQRQAIPIGLQNRDIIGVAETGSGKTAAFLIPLLVWITTLPKIDRIEESDQGPYAIILAPTRELAQQIEEETIKFGKPLGIRTVAVIGGISREDQGFRLRMGCEIVIATPGRLIDVLENRYLVLSRCTYVVLDEADRMIDMGFEPDVQKILEHMPVSNQKPDTDEAEDPEKMLANFESGKHKYRQTVMFTATMPPAVERLARSYLRRPAVVYIGSAGKPHERVEQKVFLMSESEKRKKLLAILEQGFDPPIIIFVNQKKGCDVLAKSLEKMGYNACTLHGGKGQEQREFALSNLKAGAKDILVATDVAGRGIDIQDVSMVVNYDMAKNIEDYIHRIGRTGRAGKSGVAITFLTKEDSAVFYELKQAILESPVSSCPPELANHPDAQHKPGTILTKKRREETIFA | binds
